The text below walks through data of article PMC4661524 (Scientific Reports, 2015).

Protein sequences, listed by entry. Tags and fused reporters are not part of them. Lines headed by an entry give the natural chain unless they say otherwise; changes in a name come on top.
UniProt P28067: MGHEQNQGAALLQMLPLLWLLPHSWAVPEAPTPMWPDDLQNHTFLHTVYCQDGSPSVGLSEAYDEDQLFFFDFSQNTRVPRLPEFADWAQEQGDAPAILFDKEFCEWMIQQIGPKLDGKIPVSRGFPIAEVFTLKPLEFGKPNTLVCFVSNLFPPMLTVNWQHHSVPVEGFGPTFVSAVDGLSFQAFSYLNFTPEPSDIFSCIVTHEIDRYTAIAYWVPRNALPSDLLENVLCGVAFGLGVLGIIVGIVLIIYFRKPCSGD

Where a chain is given by its changes, count along the chain named. Results are given in words; binding and its absence hold for the method and conditions named. Some results given as binding are weak or reduced against the parent protein; the word gives no strength.

The target in experiment [1] is T1, wild type HLA-DO ectodomain of the DM-DO ectodomain complex (human) (UniProt P06340+P13765).
T1 sequence (chain, biotin on the C-terminal avitag (BirA), in the BLI experiment) 1: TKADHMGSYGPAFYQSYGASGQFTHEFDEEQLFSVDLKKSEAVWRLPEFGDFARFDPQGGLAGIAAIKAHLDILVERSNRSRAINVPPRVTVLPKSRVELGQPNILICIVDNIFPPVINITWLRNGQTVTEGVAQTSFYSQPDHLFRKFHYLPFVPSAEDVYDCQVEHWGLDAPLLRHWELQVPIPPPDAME
T1 sequence (chain, biotin on the C-terminal avitag (BirA), in the BLI experiment) 2: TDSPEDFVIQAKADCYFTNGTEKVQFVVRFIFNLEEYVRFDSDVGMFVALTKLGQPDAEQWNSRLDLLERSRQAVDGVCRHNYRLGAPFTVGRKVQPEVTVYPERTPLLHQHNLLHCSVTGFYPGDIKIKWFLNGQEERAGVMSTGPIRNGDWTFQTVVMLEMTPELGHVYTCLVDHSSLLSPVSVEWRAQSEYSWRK
Description: BLI; Octet QK, 37 C, pH 6.3; biotinylated wild type DM-DO complex held on a streptavidin biosensor, dissociation followed in kinetic buffer for over 4 hours; both purified.

Experiment [2] concerns the target T2, biotinylated stabilized HLA-DO variant ectodomain (alpha P11A) (human) (UniProt P06340+P13765).
T2 sequence (chain, biotin on the C-terminal avitag (BirA)) 1: T1 sequence (chain, biotin on the C-terminal avitag (BirA), in the BLI experiment) 1 with P11A
T2 sequence (chain, biotin on the C-terminal avitag (BirA)) 2: T1 sequence (chain, biotin on the C-terminal avitag (BirA), in the BLI experiment) 2
Put plainly: BLI; Octet QK, 37 C, pH 6.3; biotinylated DOv on streptavidin biosensors, soluble DM at several concentrations, then long dissociation in kinetic buffer; both purified.

Regarding “HLA-DM ectodomain of the wild type DM-DO ectodomain complex (from UniProt P28067 27-233; P28068 19-218) (domain or fragment)”, in experiment [1], the binding entry is “binds”.

Turning to “soluble HLA-DM ectodomain (from UniProt P28067 27-233; P28068 19-218) (domain or fragment)”, in experiment [2], the binding entry is “binds”.
